# Results taken from the supplement of paper PMC8728848.
# Some of the results follow.
# B1: PX14343I-pdi-501-30-501 (Parabacteroides distasonis) (protein)
# chain: SDQYSTETFWKTKEHASAGIMGCYNALKLWRSLHTMEFDMLTANAMPYNEANGTQAIGKGEHLSTTALIGSLWKNCYVGIGRTNTFIANVGGVDMDESEKAKMVGEAKFLRAFYYLSLVDKFGGVPLIIDAPNADEQAELPRNSKEEVVNQIVKDLEEAAAVLPDTYASSDLGRATKGAALALKARTLLYNSRWAEAAQAAKQVMESGVYQLFNDYRHFFSEDNKYNCEVIFDIEAKLPEYPTDYDQNIWRLNRPAPLKELVDTYLCVDGKTIEESPLYDPTRPYENRDPRLLKSIVCIGYPYLGKTITKEDVATTGFGVKKYTSYEDDVTIPLVERSAFNFILIRYAEVLLTYAEAQNEASGPDQSVYDAINQLRRRPDINMPEVPKGLTKDQMREVIRRERRIELTFEGLYYSDILRWKTAEKENNGMMHNYEGIEVVKRSFNPKRDYLWPIPYNQTVLNPNLEQNPNWD
# Experiments:
# Assay in all cases: glycan array binding signal (z-score within array); higher = stronger binding
# Details in all cases: glycan notation: IUPAC condensed, linker removed
# [1] = target: Gal(a1-3)Gal(b1-4)GlcNAc(b1-2)Man
# Procedure, shortened: (§1)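 Glycan array data were curated from 3228 arrays in the Consortium for Functional Glycomics database and kept only where the protein sequence was available. Glycan names were converted to IUPAC-condensed notation, and columns mapping to the same glycan were averaged. The binding signal is a within-array Z-score, averaged across arrays of the same protein sequence at different concentrations or buffers and across linkers. Negative Z-scores can be read as non-binding.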
# [2] = target: Gal(a1-3)Gal(b1-4)GlcNAc(b1-2)Man(a1-3)[Gal(a1-3)Gal(b1-4)GlcNAc(b1-2)Man(a1-6)]Man(b1-4)GlcNAc(b1-4)GlcNAc
# Procedure, shortened: as §1
# [3] = target: Gal(a1-3)Gal(b1-4)GlcNAc(b1-3)GalNAc
# Procedure, shortened: as §1
# [4] = target: Gal(a1-3)Gal(b1-4)GlcNAc(b1-6)GalNAc
# Procedure, shortened: as §1
# [5] = target: Gal(a1-3)Gal(b1-4)[Fuc(a1-3)]GlcNAc
# Procedure, shortened: as §1
# [6] = target: Gal(a1-3)Gal(b1-4)[Fuc(a1-3)]GlcNAc(b1-2)Man(a1-3)[Gal(a1-3)Gal(b1-4)[Fuc(a1-3)]GlcNAc(b1-2)Man(a1-6)]Man(b1-4)GlcNAc(b1-4)GlcNAc
# Procedure, shortened: as §1
# Gal(a1-3)GalNAc = target: Gal(a1-3)GalNAc
# Procedure, shortened: as §1
# [7] = target: Gal(a1-3)[Gal(a1-4)]Gal(b1-4)GlcNAc
# Procedure, shortened: as §1
# [8] = target: Gal(a1-4)Gal(b1-3)GlcNAc(b1-2)Man(a1-3)[Gal(a1-4)Gal(b1-3)GlcNAc(b1-2)Man(a1-6)]Man(b1-4)GlcNAc(b1-4)GlcNAc
# Procedure, shortened: as §1
# Gal(a1-4)Gal(b1-4)Glc = target: Gal(a1-4)Gal(b1-4)Glc
# Procedure, shortened: as §1
# Gal(a1-4)Gal(b1-4)GlcNAc = target: Gal(a1-4)Gal(b1-4)GlcNAc
# Procedure, shortened: as §1
# [9] = target: Gal(a1-4)Gal(b1-4)GlcNAc(b1-2)Man(a1-3)[Gal(a1-4)Gal(b1-4)GlcNAc(b1-2)Man(a1-6)]Man(b1-4)GlcNAc(b1-4)GlcNAc
# Procedure, shortened: as §1
# [10] = target: Gal(a1-4)Gal(b1-4)GlcNAc(b1-3)Gal(b1-4)Glc
# Procedure, shortened: as §1
# Gal(a1-4)GlcNAc = target: Gal(a1-4)GlcNAc
# Procedure, shortened: as §1
# Gal(a1-6)Glc = target: Gal(a1-6)Glc
# Procedure, shortened: as §1
# Gal(b1-2)Gal = target: Gal(b1-2)Gal
# Procedure, shortened: as §1
# Gal(b1-3)Gal = target: Gal(b1-3)Gal
# Procedure, shortened: as §1
# Gal(b1-3)Gal(b1-4)GlcNAc = target: Gal(b1-3)Gal(b1-4)GlcNAc
# Procedure, shortened: as §1
# Gal(b1-3)GalNAc = target: Gal(b1-3)GalNAc
# Procedure, shortened: as §1
# [11] = target: Gal(b1-3)GalNAc(a1-3)[Fuc(a1-2)]Gal(b1-4)Glc
# Procedure, shortened: as §1
# [12] = target: Gal(b1-3)GalNAc(a1-3)[Fuc(a1-2)]Gal(b1-4)GlcNAc
# Procedure, shortened: as §1
# Gal(b1-3)GalNAc(b1-3)Gal = target: Gal(b1-3)GalNAc(b1-3)Gal
# Procedure, shortened: as §1
# [13] = target: Gal(b1-3)GalNAc(b1-3)Gal(a1-4)Gal(b1-4)Glc
# Procedure, shortened: as §1
# [14] = target: Gal(b1-3)GalNAc(b1-4)Gal(b1-4)Glc
# Procedure, shortened: as §1
# [15] = target: Gal(b1-3)GalNAc(b1-4)[Neu5Ac(a2-3)]Gal(b1-4)Glc
# Procedure, shortened: as §1
# Gal(b1-3)GlcNAc = target: Gal(b1-3)GlcNAc
# Procedure, shortened: as §1
# [16] = target: Gal(b1-3)GlcNAc(a1-3)Gal(b1-4)GlcNAc
# Procedure, shortened: as §1
# [17] = target: Gal(b1-3)GlcNAc(a1-6)Gal(b1-4)GlcNAc
# Procedure, shortened: as §1
# Gal(b1-3)GlcNAc(b1-2)Man = target: Gal(b1-3)GlcNAc(b1-2)Man
# Procedure, shortened: as §1
# [18] = target: Gal(b1-3)GlcNAc(b1-2)Man(a1-3)[Gal(b1-3)GlcNAc(b1-2)Man(a1-6)]Man(b1-4)GlcNAc(b1-4)GlcNAc
# Procedure, shortened: as §1
# [19] = target: Gal(b1-3)GlcNAc(b1-2)Man(a1-3)[Gal(b1-3)GlcNAc(b1-2)Man(a1-6)]Man(b1-4)GlcNAc(b1-4)[Fuc(a1-6)]GlcNAc
# Procedure, shortened: as §1
# [20] = target: Gal(b1-3)GlcNAc(b1-2)Man(a1-3)[GlcNAc(b1-4)][Gal(b1-3)GlcNAc(b1-2)Man(a1-6)]Man(b1-4)GlcNAc(b1-4)GlcNAc
# Procedure, shortened: as §1
# [21] = target: Gal(b1-3)GlcNAc(b1-2)[Gal(b1-3)GlcNAc(b1-6)]Man(a1-6)[Gal(b1-3)GlcNAc(b1-2)Man(a1-3)]Man(b1-4)GlcNAc(b1-4)GlcNAc
# Procedure, shortened: as §1
# [22] = target: Gal(b1-3)GlcNAc(b1-3)Gal(b1-3)GlcNAc
# Procedure, shortened: as §1
# [23] = target: Gal(b1-3)GlcNAc(b1-3)Gal(b1-4)Glc
# Procedure, shortened: as §1
# [24] = target: Gal(b1-3)GlcNAc(b1-3)Gal(b1-4)GlcNAc
# Procedure, shortened: as §1
# [25] = target: Gal(b1-3)GlcNAc(b1-3)Gal(b1-4)GlcNAc(b1-2)Man(a1-3)[Gal(b1-3)GlcNAc(b1-3)Gal(b1-4)GlcNAc(b1-2)Man(a1-6)]Man(b1-4)GlcNAc(b1-4)GlcNAc
# Procedure, shortened: as §1
binder,measurement,setting,value
B1,glycan array binding signal (z-score),[1],-0.638
same,glycan array binding signal (z-score),[2],0.111
same,glycan array binding signal (z-score),[3],0.216
same,glycan array binding signal (z-score),[4],-0.364
same,glycan array binding signal (z-score),[5],-0.762
same,glycan array binding signal (z-score),[6],0.785
same,glycan array binding signal (z-score),Gal(a1-3)GalNAc,-0.074
same,glycan array binding signal (z-score),[7],2.67
same,glycan array binding signal (z-score),[8],-0.39
same,glycan array binding signal (z-score),Gal(a1-4)Gal(b1-4)Glc,0.986
same,glycan array binding signal (z-score),Gal(a1-4)Gal(b1-4)GlcNAc,0.411
same,glycan array binding signal (z-score),[9],0.022
same,glycan array binding signal (z-score),[10],-0.408
same,glycan array binding signal (z-score),Gal(a1-4)GlcNAc,-0.858
same,glycan array binding signal (z-score),Gal(a1-6)Glc,0.107
same,glycan array binding signal (z-score),Gal(b1-2)Gal,-0.923
same,glycan array binding signal (z-score),Gal(b1-3)Gal,0.268
same,glycan array binding signal (z-score),Gal(b1-3)Gal(b1-4)GlcNAc,-0.375
same,glycan array binding signal (z-score),Gal(b1-3)GalNAc,0.4
same,glycan array binding signal (z-score),[11],-0.601
same,glycan array binding signal (z-score),[12],0.822
same,glycan array binding signal (z-score),Gal(b1-3)GalNAc(b1-3)Gal,0.066
same,glycan array binding signal (z-score),[13],-0.858
same,glycan array binding signal (z-score),[14],-0.713
same,glycan array binding signal (z-score),[15],0.341
same,glycan array binding signal (z-score),Gal(b1-3)GlcNAc,-0.376
same,glycan array binding signal (z-score),[16],-1.27
same,glycan array binding signal (z-score),[17],-0.41
same,glycan array binding signal (z-score),Gal(b1-3)GlcNAc(b1-2)Man,1.05
same,glycan array binding signal (z-score),[18],-0.657
same,glycan array binding signal (z-score),[19],0.589
same,glycan array binding signal (z-score),[20],0.623
same,glycan array binding signal (z-score),[21],1.55
same,glycan array binding signal (z-score),[22],-0.385
same,glycan array binding signal (z-score),[23],0.23
same,glycan array binding signal (z-score),[24],-1.03
same,glycan array binding signal (z-score),[25],0.741

# A second format for some results above.
binder	measurement	setting	value
B1	glycan array binding signal (z-score)	Gal(b1-3)GalNAc(b1-3)Gal	0.066
same	glycan array binding signal (z-score)	[13]	-0.858
